From article PMC2797798
No constants are given. Whether binding was seen depends on the method and setting. In cells and extracts the contact can be indirect. These calls come from enrichment with a bait or labelling near it, and not all partners need be listed. Tags and fused reporters may be left off the sequences shown.

By UniProt entry, the sequences of proteins in these tests, tags left out.
UniProt P35579: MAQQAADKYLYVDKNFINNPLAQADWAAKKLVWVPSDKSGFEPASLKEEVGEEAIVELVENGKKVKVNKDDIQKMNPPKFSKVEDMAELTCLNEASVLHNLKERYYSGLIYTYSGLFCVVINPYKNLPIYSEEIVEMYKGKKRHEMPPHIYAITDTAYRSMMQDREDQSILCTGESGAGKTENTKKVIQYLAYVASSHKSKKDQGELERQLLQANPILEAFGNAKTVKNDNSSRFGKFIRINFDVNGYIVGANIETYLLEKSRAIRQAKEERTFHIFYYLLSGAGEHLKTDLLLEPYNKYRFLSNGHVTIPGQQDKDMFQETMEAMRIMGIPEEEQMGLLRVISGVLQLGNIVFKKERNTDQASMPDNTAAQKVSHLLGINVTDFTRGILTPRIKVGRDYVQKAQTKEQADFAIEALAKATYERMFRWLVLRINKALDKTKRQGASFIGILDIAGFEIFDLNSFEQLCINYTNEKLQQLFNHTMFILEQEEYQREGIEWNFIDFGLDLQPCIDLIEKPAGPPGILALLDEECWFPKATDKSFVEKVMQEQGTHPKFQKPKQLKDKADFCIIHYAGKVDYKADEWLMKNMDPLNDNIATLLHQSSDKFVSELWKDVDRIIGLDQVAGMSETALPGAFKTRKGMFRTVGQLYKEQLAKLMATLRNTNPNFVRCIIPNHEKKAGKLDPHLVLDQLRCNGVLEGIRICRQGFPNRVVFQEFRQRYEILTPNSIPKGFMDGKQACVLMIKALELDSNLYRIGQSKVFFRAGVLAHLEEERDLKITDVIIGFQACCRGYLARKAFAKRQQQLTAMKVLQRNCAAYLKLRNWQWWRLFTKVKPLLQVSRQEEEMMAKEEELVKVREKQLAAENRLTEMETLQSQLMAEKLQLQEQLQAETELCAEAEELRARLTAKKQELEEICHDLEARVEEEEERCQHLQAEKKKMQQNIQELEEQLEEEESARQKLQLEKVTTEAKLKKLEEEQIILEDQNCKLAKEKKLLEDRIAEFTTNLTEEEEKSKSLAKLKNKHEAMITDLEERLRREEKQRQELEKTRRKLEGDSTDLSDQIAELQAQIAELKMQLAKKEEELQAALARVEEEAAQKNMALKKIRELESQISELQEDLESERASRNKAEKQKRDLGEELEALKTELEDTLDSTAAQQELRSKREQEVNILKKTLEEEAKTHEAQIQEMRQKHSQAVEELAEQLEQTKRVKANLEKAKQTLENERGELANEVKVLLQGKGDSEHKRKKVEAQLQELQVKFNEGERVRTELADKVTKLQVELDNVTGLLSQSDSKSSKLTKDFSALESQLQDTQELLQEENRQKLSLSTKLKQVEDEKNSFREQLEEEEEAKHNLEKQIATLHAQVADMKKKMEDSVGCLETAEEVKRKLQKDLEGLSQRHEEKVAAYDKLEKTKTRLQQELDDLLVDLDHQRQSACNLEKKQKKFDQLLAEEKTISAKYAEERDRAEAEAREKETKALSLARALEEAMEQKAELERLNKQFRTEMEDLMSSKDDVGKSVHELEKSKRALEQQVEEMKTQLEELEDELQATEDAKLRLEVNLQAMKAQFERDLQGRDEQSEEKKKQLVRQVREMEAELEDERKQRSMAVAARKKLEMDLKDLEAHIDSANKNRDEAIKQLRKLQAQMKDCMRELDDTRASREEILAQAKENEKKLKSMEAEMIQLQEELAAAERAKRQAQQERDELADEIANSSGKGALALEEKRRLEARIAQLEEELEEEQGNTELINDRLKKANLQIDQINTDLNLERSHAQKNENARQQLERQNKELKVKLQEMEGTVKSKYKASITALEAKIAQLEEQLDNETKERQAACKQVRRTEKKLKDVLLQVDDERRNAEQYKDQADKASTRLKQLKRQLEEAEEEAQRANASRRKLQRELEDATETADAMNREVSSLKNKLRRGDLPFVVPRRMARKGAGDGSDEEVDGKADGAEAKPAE

Target: T1, FLAG-tagged Gas8 (human) (UniProt O95995)
T1 sequence: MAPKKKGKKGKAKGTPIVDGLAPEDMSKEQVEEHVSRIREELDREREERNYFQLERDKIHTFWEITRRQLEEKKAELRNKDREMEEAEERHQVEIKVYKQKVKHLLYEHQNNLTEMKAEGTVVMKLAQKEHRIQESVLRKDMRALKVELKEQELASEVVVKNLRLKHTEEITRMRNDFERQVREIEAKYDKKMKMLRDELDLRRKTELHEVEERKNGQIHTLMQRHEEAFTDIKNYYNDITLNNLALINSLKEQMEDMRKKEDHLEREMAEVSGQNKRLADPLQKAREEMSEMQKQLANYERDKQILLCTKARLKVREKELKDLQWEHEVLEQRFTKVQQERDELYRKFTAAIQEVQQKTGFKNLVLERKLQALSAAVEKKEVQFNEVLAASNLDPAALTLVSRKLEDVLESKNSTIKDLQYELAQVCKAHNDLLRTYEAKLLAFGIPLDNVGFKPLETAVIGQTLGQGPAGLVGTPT
Experiment: affinity purification with mass spectrom

binding: binds
Substance: myosin-9 (from UniProt P35579 1-1960)
